In patent US20050239844A1, “Composition fo preventing secretion of immunoglobulin e-dependent histamine releasing factor” (KYUNG-LIM LEE, priority 2002, published 2005):
At least one structure is not confirmed: it was looked up by name or label, or the drawing left a doubt.

Legend:
HRF = assay: Blood HRF concentration after C48/80 anaphylaxis (Western blotting of serum); type: in vivo, mice; conditions: serum of group pretreated with pantoprazole 10 mg/kg that survived C48/80, FIG. 4
U-937 cell = assay: Inhibition of C48/80-increased HRF secretion in U-937 cells (Western blotting); type: cell-based; conditions: omeprazole 10 μM and 100 μM with 10 μg/ml C48/80, FIG. 3
BALBc male mice = assay: Ovalbumin-induced allergic rhinitis: eosinophil number in nasal mucosa (histology); type: in vivo; conditions: groups administered 10 mg/kg and 100 mg/kg pantoprazole; in words
Description: 3-week-old BALBc male mice weighing 15-25 g were divided into four groups each comprising 6 or 7 animals, and then bred in a specific pathogen-free (SPF) environment for 35 days. In order to induce allergic rhinitis, 10 μg of ovalbumin (grade V, Sigma Chemical Co., Phillipsberg, N.Y.) and 1 mg of aluminum hydroxide (Al(OH)3) gel were mixed with 0.3 ml phosphate buffered saline for at least 30 minutes to prepare an ovalbumin mixture. 0.1 ml of the mixture was injected into the abdominal cavity of the mice, and each at 5, 14 and 21 days later, injected once more into the abdominal cavity. At one week after the final injection into the abdominal cavity (28 days later), 30 μl phosphate buffered saline or a mixture of 100 μg ovalbumin with 30 μl phosphate buffered saline was administered into the nasal cavity using a micropipette. […] The administration of ovalalbumin into the nasal cavity and the pretreatment with the drugs before this administration were performed for 7 days, one time a day, and the next day after the administration for 7 days, the mice of all the groups was euthanized by inhalation with carbonic acid gas. […] The measured results were statistically analyzed by the Mann-Whitney U-test, using SPSS for Windows version 10 (SPSS Inc., Chicago), and were determined to be statistically significant at p<0.05.

SD mice = assay: Anaphylaxis reaction caused by C48/80: mortality; type: in vivo; conditions: pantoprazole 10 mg/kg tail vein 30 minutes before C48/80 10 mg/kg; in words
Description: SD mice weighing 200-220 g were divided into three groups consisting of a negative control group, a positive control group and a test group, each group consisting of eight animals.
30 minutes after this pretreatment, the negative control group was injected with a phosphate buffer saline through the tail vein, the positive control group and the test group were injected with 10 mg/kg of C48/80 through the tail vein. After the injection, the number of individuals died of anaphylaxis reaction caused by C48/80 was observed. The standard of death and survival was determined by whether or not the animals survive for one hour after C48/80 administration.

Compound | band of HRF in blood (HRF) | inhibition of HRF secretion increased by C48/80 (U-937 cell) | eosinophil number compared to the positive control group (BALBc male mice) | anaphylaxis reaction in the animals (SD mice)
COc1ccnc(C[S+]([O-])c2nc3ccc(OC(F)F)cc3[nH]2)c1OC (stereo not shown) [Inventive composition, pantoprazole] | not substantially detected |  |  | 
COc1ccc2[nH]c([S+]([O-])Cc3ncc(C)c(OC)c3C)nc2c1 (stereo not shown) [composition of the present invention, omeprazole] |  | effectively inhibited the secretion of HRF | very lower eosinophil number than the positive control group | remarkably reduces anaphylaxis reaction
